This is an account of results in publication doi:10.1101/2023.10.24.563888.

The chains behind the UniProt entries cited, without tags or fusion partners.
UniProt P02538: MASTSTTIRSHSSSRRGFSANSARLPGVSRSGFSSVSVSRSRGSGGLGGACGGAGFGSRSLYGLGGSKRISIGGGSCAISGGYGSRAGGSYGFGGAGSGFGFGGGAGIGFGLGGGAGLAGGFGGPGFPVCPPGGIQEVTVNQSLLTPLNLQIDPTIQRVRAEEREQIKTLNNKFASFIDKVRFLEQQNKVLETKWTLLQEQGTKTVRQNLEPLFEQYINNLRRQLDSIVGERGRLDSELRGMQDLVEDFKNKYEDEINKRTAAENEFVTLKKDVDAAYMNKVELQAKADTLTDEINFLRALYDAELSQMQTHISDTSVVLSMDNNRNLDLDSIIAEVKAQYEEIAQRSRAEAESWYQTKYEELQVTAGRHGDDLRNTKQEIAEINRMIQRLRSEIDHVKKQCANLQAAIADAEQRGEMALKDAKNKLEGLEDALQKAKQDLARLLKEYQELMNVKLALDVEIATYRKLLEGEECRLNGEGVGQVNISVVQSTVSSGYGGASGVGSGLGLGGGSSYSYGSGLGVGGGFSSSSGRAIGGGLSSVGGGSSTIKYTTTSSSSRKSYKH
UniProt Q8IUD2: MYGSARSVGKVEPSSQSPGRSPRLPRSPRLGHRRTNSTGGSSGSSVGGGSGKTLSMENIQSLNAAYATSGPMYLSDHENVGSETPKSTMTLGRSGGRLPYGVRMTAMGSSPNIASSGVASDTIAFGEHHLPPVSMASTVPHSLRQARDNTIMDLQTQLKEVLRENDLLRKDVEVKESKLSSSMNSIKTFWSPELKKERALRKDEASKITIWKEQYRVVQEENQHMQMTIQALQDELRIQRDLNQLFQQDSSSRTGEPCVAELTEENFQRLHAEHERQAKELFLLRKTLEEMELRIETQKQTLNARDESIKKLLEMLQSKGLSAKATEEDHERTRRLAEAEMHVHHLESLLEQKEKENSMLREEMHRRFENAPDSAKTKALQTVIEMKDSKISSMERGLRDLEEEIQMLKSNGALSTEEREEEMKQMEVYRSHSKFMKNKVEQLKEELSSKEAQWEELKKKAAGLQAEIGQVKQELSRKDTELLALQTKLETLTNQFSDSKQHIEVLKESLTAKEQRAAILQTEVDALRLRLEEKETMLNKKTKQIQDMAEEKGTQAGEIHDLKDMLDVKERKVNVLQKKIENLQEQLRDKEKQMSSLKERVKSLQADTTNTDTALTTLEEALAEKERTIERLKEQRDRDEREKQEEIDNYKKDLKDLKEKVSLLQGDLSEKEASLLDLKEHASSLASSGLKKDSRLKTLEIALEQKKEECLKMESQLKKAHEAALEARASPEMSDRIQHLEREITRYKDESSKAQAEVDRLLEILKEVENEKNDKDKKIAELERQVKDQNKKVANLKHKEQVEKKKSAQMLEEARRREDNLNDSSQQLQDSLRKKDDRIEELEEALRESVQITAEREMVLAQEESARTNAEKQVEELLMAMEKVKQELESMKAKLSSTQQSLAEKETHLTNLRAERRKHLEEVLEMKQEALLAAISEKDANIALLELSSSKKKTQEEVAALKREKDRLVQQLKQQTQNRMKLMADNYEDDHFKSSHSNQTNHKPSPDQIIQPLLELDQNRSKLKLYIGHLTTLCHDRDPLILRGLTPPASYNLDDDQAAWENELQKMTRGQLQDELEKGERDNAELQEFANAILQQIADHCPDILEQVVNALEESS
UniProt P08779: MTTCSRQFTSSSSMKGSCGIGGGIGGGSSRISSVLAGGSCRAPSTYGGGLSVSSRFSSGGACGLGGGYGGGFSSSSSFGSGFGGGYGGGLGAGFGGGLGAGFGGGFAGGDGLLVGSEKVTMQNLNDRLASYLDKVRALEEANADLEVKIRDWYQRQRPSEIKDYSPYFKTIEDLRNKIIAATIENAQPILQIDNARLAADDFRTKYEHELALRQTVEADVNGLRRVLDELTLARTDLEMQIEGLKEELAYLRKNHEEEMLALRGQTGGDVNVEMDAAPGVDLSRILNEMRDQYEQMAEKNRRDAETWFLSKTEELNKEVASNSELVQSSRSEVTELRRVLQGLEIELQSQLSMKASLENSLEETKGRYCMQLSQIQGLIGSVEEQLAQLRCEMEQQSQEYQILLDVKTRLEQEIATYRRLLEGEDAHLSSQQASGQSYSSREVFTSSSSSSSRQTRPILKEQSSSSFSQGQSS
UniProt Q9UNE7: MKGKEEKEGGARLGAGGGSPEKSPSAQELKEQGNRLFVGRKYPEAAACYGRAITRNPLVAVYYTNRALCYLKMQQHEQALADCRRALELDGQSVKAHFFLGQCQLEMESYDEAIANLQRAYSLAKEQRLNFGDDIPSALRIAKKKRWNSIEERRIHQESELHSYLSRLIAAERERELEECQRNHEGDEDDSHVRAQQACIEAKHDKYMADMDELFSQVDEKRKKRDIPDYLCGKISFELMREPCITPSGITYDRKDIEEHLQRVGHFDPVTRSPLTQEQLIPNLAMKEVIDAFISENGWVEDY

Results are given in words; binding and its absence hold for the method and conditions named. Binding seen in cells or lysates may run through a third protein. Here binding means that the protein was enriched with, or labelled near, the bait; the list need not be complete.

This assay concerns the target keratin 6a (K6a), endogenous in hTCEpi cells (human (endogenous in hTCEpi)) (UniProt P02538). The assay can be described thus: affinity purification with mass spectrometry.

In the case of “ELKS/Rab6-interacting/CAST family member 1 (ELKS), endogenous in hTCEpi cells (from UniProt Q8IUD2 1-1116)”, the binding result was “binds”.

K16 (from UniProt P08779 1-473): the binding entry is recorded as “binds”.

As to “carboxyl terminus of constitutive heat shock cognate 70 (HSC70)-interacting protein (CHIP) (from UniProt Q9UNE7 1-303) (enzyme)”, the binding entry is listed as “binds”.

B1: tripartite motif-containing protein 29 (TRIM29) (enzyme, UniProt Q14134 1-588)
chain: MEAADASRSNGSSPEARDARSPSGPSGSLENGTKADGKDAKTTNGHGGEAAEGKSLGSALKPGEGRSALFAGNEWRRPIIQFVESGDDKNSNYFSMDSMEGKRSPYAGLQLGAAKKPPVTFAEKGELRKSIFSESRKPTVSIMEPGETRRNSYPRADTGLFSRSKSGSEEVLCDSCIGNKQKAVKSCLVCQASFCELHLKPHLEGAAFRDHQLLEPIRDFEARKCPVHGKTMELFCQTDQTCICYLCMFQEHKNHSTVTVEEAKAEKETELSLQKEQLQLKIIEIEDEAEKWQKEKDRIKSFTTNEKAILEQNFRDLVRDLEKQKEEVRAALEQREQDAVDQVKVIMDALDERAKVLHEDKQTREQLHSISDSVLFLQEFGALMSNYSLPPPLPTYHVLLEGEGLGQSLGNFKDDLLNVCMRHVEKMCKADLSRNFIERNHMENGGDHRYVNNYTNSFGGEWSAPDTMKRYSMYLTPKGGVRTSYQPSSPGRFTKETTQKNFNNLYGTKGNYTSRVWEYSSSIQNSDNDLPVVQGSSSFSLKGYPSLMRSQSPKAQPQTWKSGKQTMLSHYRPFYVNKGNGIGSNEAP
As for B1, the binding result is given as “binds”.

B2: RelA-associated inhibitor (protein, UniProt Q8WUF5 1-828)
chain: MDSEAFQSARDFLDMNFQSLAMKHMDLKQMELDTAAAKVDELTKQLESLWSDSPAPPGPQAGPPSRPPRYSSSSIPEPFGSRGSPRKAATDGADTPFGRSESAPTLHPYSPLSPKGRPSSPRTPLYLQPDAYGSLDRATSPRPRAFDGAGSSLGRAPSPRPGPGPLRQQGPPTPFDFLGRAGSPRGSPLAEGPQAFFPERGPSPRPPATAYDAPASAFGSSLLGSGGSAFAPPLRAQDDLTLRRRPPKAWNESDLDVAYEKKPSQTASYERLDVFARPASPSLQLLPWRESSLDGLGGTGKDNLTSATLPRNYKVSPLASDRRSDAGSYRRSLGSAGPSGTLPRSWQPVSRIPMPPSSPQPRGAPRQRPIPLSMIFKLQNAFWEHGASRAMLPGSPLFTRAPPPKLQPQPQPQPQPQSQPQPQLPPQPQTQPQTPTPAPQHPQQTWPPVNEGPPKPPTELEPEPEIEGLLTPVLEAGDVDEGPVARPLSPTRLQPALPPEAQSVPELEEVARVLAEIPRPLKRRGSMEQAPAVALPPTHKKQYQQIISRLFHRHGGPGPGGPEPELSPITEGSEARAGPPAPAPPAPIPPPAPSQSSPPEQPQSMEMRSVLRKAGSPRKARRARLNPLVLLLDAALTGELEVVQQAVKEMNDPSQPNEEGITALHNAICGANYSIVDFLITAGANVNSPDSHGWTPLHCAASCNDTVICMALVQHGAAIFATTLSDGATAFEKCDPYREGYADCATYLADVEQSMGLMNSGAVYALWDYSAEFGDELSFREGESVTVLRRDGPEETDWWWAALHGQEGYVPRNYFGLFPRVKPQRSKV
As to B2, the binding entry is recorded as “binds”.
